According to ChEMBL document CHEMBL5380782, “Design, Biological Evaluation, and Computer-Aided Analysis of Dihydrothiazepines as Selective Antichlamydial Agents” (J Med Chem, 2023):
Values after ≈ are worked out from the molar mass of the structure shown.

Test system: Candida albicans
Test: Antimicrobial activity against Candida albicans 90028 assessed as microbial growth inhibition by broth microdilution method
Type: functional

With `OC(Cn1cncn1)(Cn1cncn1)c1ccc(F)cc1F` [FLUCONAZOLE] as the compound, how does the MIC read?
Its MIC is 1 µg/mL (≈ 3.27 µM).
